According to paper PMC4869255:
These are yes or no findings as the source states them, for the method shown.

Molecular target: hPRLR-ICD_(G236–H598), intracellular domain of the human prolactin receptor (human) (UniProt P16471)
Assay: NMR, 1H-15N-HSQC spectra at two concentrations; 15N-hPRLR-ICD_(G236–H598) at 400 μM and 20 μM, 5 °C, 20 mM Na2HPO4/NaH2PO4 pH 7.3, 8 mM TCEP; chemical shifts compared; both purified

binding: no binding (tested: 400 μM)
B1: hPRLR-ICD_(G236–H598), intracellular domain of the human prolactin receptor (domain or fragment, UniProt P16471 260-622)
chain: GYSMVTCIFPPVPGPKIKGFDAHLLEKGKSEELLSALGCQDFPPTSDYEDLLVEYLEVDDSEDQHLMSVHSKEHPSQGMKPTYLDPDTDSGRGSCDSPSLLSEKCEEPQANPSTFYDPEVIEKPENPETTHTWDPQCISMEGKIPYFHAGGSKCSTWPLPQPSQHNPRSSYHNITDVCELAVGPAGAPATLLNEAGKDALKSSQTIKSREEGKATQQREVESFHSETDQDTPWLLPQEKTPFGSAKPLDYVEIHKVNKDGALSLLPKQRENSGKPKKPGTPENNKEYAKVSGVMDNNILVLVPDPHAKNVACFEESAKEAPPSLEQNQAEKALANFTATSSKCRLQLGGLDYLDPACFTHSFH
